Reference: patent US20220112288A1
These are yes or no findings as the source states them, for the method shown.

B1: CD8B303 (antibody, human IgG1, kappa, V domains shown)
VH: QVQLKESGPGLVAPSQSLSITCTVSGFSLSIYSIHWVRQPPGKGLEWLGMIWGGGSTDYNSTLNSRLSIIKDNSKSQVFLKMNSLQTDDTAMYYCARNPHHYGGSTGAMDYWGQGTTVTVSS
VL: DVQMIQSPSSLSASLGGTVTITCKASQDIKKYMAWYQHKPGKGPRLLIHYTSSLQPGIPSRFSGSGSGRDYYFSISNLEPEDIATYFCLQYDNLFTFGSGTKLELKR
B2: CD8B312 (antibody, human IgG1, kappa, V domains shown)
VH: QVQLQQPGADLVKPGASVKLSCKASGYTFTSFWMHWVKQRPGQGLEWIGNVDPSDSQTHYNQKFKDKATLTVDKSSNTAYMQLSSLTSEDSAVYYCARSTYYRYDGPFTYWGQGTTVTVSS
VL: DIVLTQSPATLSVTPGDSVSLSCRASQSINNNLHWYQQKSHESPRLLIKYTSQSISGIPSRFSGSGSGPDFTLSINSVETEDFGMYFCQQSNSWPLTFGGGTKLEIKR
B3: CD8B350 (antibody, human IgG1, kappa, V domains shown)
VH: EVQLQQSGAELAKPGTSVKMSCKASGYTFAAYWINWLKQRPGQGLEWIGSINPSNGYTEYSQKFKDKAILTADKSSSTAYMQLSSLTSEDSAVYYCSRSGLYYTNHLAWCPYWGQGTTVTVSS
VL: DIVMTQSPASLSASVGETVTITCRASGNIHNYLAWYQQKQGKSPQVLVYNAETLADSVPSRFSGSGSGTQFSLKINSLQPEDFGNYYCQHFWNSPLTFGGGTKLEIKR
B4: CD8B268 (antibody, human IgG1, kappa, V domains shown)
VH: QVQLQQSGAELVKPGASVKLSCKASGYTFTVYTIHWVKQRSGQGLEWIGWFYPGSGNIKYNEKFKDKATLTADKSSHTVYMELSRLTSEDSAVYFCARHEDNHYYDGNSWFAYWGQGTLVTVSA
VL: DIQMTQSPASLSASVGQTVTITCRASGNIHNYLAWFQQKQGKSPQLLVYNAKTLADGVPSRFSGSGSGTQYSLKINSLQTEDFGNYYCQHFWNTPYTFGGGTKLEIKR
B5: CD8B271 (antibody, human IgG1, kappa, V domains shown)
VH: DVQLQESGPGLVAPSQSLSITCTVSGFSLSIYSIHWVRQPPGKGLEWLGMIWGGGDTDYNSALKSRLSISKDNSESQVFLKMNSLQTDDTAMYYCARNPHYYGGTYEYFDVWGTGTTVTVSS
VL: DIQMTQTTSSLSASLGDRVTISCSASQGISNYLNWYQQKPDGTVKLLIYDTSILYSGVPSRFSGSGSGTDYSLTISNLEPEDVATYYCQQYSNLPYTFGSGTKLEIKR
B6: CD8B273 (antibody, human IgG1, kappa, V domains shown)
VH: QVQLQQSGAELVKPGASVKLSCKASGYTFTEYTIHWVKQRSGQGLEWIGWFYPGTGSIKYNEKFKDKATLTADKSSHTVYMELSKLTSEDSAVYFCARHEDNHYYDGNSWFAYWGQGTLVTVSA
VL: DIQMTQSPASLSASVGETVTITCRASGNIHNYLAWFQQKQGKSPQLLVYNAKTLADGVPSRFSGSGSGTQYSLKINSLQAEDFGSYYCQHFWSTPYTFGSGTKLEIKR
B7: CD8B246 (antibody, human IgG1, kappa, V domains shown)
VH: QVQLKESGPGILKPSQTLSLTCSFSGFSLSTSGMNVGWIRQPSGKGLEWLAHIWWDDDKYYNPSLKSQLTISKDTSRNQVFLKITSVDTADTATYYCARRGNYGNYEFAYWGQGTTLTVSS
VL: DIQMTQTTSSLSASLGDRVTISCRASQDIRNYLNWYQQKPDGTVKLLIYHTSRLHSGVPSRFSGSGSGTDYSLTISNLEQEDIATYFCQQGNTLPWTFGAGTKLELKR
B8: CD8B304 (antibody, human IgG1, kappa, V domains shown)
VH: QVTLKESGPGILKPSQTLSLTCSFSGFSLSTSGMNVGWIRQPSGKGLEWLAHIWWDDDKYYNPSLKSQLTISKDTSRNQVFLKITSVDTADTATYYCARRGNYGNYEFAYWGQGTTVTVSS
VL: DIQMTQTTSSLSASLGDRVTISCRASQDIRNYLNWYQQKPDGTVKLLIYHTSRLHSGVPSRFSGSGSGTDYSLTISNLDQEDIATYFCQQGNTLPWTFGAGTKLELKR
B9: CD8B182 (antibody, human IgG1, kappa, V domains shown)
VH: EVQLQQSGAALAKPGTSVKMSCKASGYTFTSYWMNWVRQRPGQGLEWIGAVNPTNYYTEYIQKFKDKAILTADKSSSTAYMHLSGLTSEDSAVYYCARSGLYNTNHLAWFAYWGQGTTVTVSS
VL: DIKMTQSPASLSASVGETVTITCRASENIHNYLAWYQQIQGKSPQLLVYNAKTLANGVPSRFSGSASGTQFSLTINSLQPEDFGSYYCQHFWTTPLTFGAGTKLELKR
B10: CD8B356 (antibody, human IgG1, kappa, V domains shown)
VH: DVQLQESGPGLVKPSQSLSLTCSVTGYSITSGYYWNWIRQFPGNKLEWMGYISYDGSNNYNPSLKNRISITRDTSKNQFFLKLNSVTTEDTATYYCVRNHGDAMDYWGQGTSVTVSS
VL: DIVLTQSQKFMSTTVGDRVSITCKASQNVGTAVAWYQQKPGQSPKLLIYSASYRYTGVPDRFTGSGSGTHFTLTISNMQSEDLADYFCQQYSSYLTFGSGTKLEIKR
B11: CD8B269 (antibody, human IgG1, kappa, V domains shown)
VH: DVQLQESGPGLVKPSQSLSLTCSVTGYSITSGYYWNWIRQFPGNKLEWMGYISYDGSNNYNPSLKNRISITRDTSKNQFFLKLNSVTTEDTATYYCVRNHGDAMDHWGQGTTLTVSS
VL: DIVMTQSQKFMSTSVGDRVRVTCKASQNVGTDVAWYQQKPGQSPKALIYSASYRYSGVPDRFTGSGSGTDFTLTISDVQSEDLAEYFCQQYKSYPLTFGAGTKLELKR
B12: CD8B251 (antibody, human IgG1, kappa, V domains shown)
VH: QVQLKGSGPGLVQPSQSLSITCTVSGFSLTTYAVHWVRQSPGKGLEWLGVIWSGGSTDYNAAFISRLSISKDNSKSQVFFKMNSLQADDTAIYYCARHSYYHYNAMDNWGQGTSVTVSS
VL: DIKMTQSQKFMSTTVGDRVSITCKASQNVGTAVAWYQQKPGQSPKLLIYSASNRYTGVPDRFTGSGSGTDFTLTISNMQSEDLADYFCQQYSSYPFTFGSGTKLEIKR
B13: CD8B362 (antibody, human IgG1, kappa, V domains shown)
VH: EVKLVESGAELVKPGASVKLSCTASGFNIKDTYMHWVKQRPEQGLEWIGRIDPANGHTKFDPKFQGKATITADTSSNTAYLQLSSLTSEDTAVYYCAIRFAYWGQGTLVTVSA
VL: DIQMTQSPSSLSASLGDRVSLTCRASHEISGYLSWLQQKPDGTFKRLIYAASTLDSGVPKRFSGSRSGSDYSLSISSLESEDFADYYCLQYSSYPYTFGSGTKLEMKR
B14: CD8B250 (antibody, human IgG1, kappa, V domains shown)
VH: QVQLKESGPGLVAPSQSLSITCTVSGFSLSNYVVHWVRQSPGKGLEWLGVIWTDGSTDYNAAFISRLSISKDNSKSQVFFKMNSLQADDTAIYYCARNNGYFPAFFAYWGQGTLVTVSA
VL: DIVMTQSQKFMSTSVGDRVSVTCKASQNVDTDITWYQQKPGQSPKALIYSASYRYSGVPDRFTGSGSGTDFTLTITNVQSEDLAEYFCQQYNSYPLTFGSGTKLEMKR
B15: CD8B248 (antibody, human IgG1, kappa, V domains shown)
VH: EVQLQQSGAELARPGASVKMSCKASGYTFTTYTMHWVKQRPGQGLEWIGYINPSSGYTKYNQKFTDKATLTADKSSSTAYMQLSSLTSEDSAVYYCARLWAYWGQGTLVTVSA
VL: DVVMTQTPLSLPVSLGDQASISCRSSQSLVHSSGNTYLHWYLQKPGQSPKLLIYKGSNRFSGVSDRFSGSGSGTDFTLKISRVEAEDLGVYFCSQSTHVPFTFGSGTKLEMKR
B16: CD8B254 (antibody, human IgG1, kappa, V domains shown)
VH: EVQLQQSGAELVKPGASVKMSCKTSGYTFSSYWITWVKQRPGQGLEWVGDIYPGSGSTNYNEKFKSKAALTVDTSSSTAFMQLNSLTSEDSAVYYCARESITTRITPFDHWGQGTTLTVSS
VL: DVVMTQTPLSLPVSLGDQASISCRSSQSLVHSSGNTYLHWYLQKPGQSPKLLIYKGSNRFSGVSDRFSGSGSGTDFTLKISRVEAEDLGVYFCSQSTHVPFTFGSGTKLEIKR
B17: CD8B311 (antibody, human IgG1, kappa, V domains shown)
VH: QVQLKESGPELVKPGASVKLSCKASGYTFTSYWMHWVKQRPGQGLEWIGMIHPNSGSTNYNEKFKSKATLTVDKSSSTAYMQLSSLTSEDSAVYYCARCGYDGAWFAYWGQGTSVTVSS
VL: DIQMTQTTSSLSASLGDRVTISCSASQGISNCLNWYQQKPDGTVKLLIHYTSSLHSGVPSRFSGGGSGTHYSLTISNLEPEDIATYYCQQYSKVPYTFGSGTKLEIKR
B18: CD8B186 (antibody, human IgG1, kappa, V domains shown)
VH: QVQLQQSGAELAKPGASVKMSCKASGYIFTSYWMHWVKQRPGQGLEWIGNINPSSGYAVYNQKFKDKATLTADQSSSTAYIQLNSLTSEDSAVYYCARRVFYGDSWFAYWGQGTSVTVSS
VL: DVQMIQSPASLSASVGETVTITCRASGNIHNYLAWYQQKQGKSPQLLVYNAKTLADGVPSRFSGSGSGTQYSLKINSLQPEDFGSYYCQHFWSTTWTFGGGTKLEIKR
B19: CD8B192 (antibody, human IgG1, kappa, V domains shown)
VH: QVQLQQSGPVLVKPGASVKMSCKASGYTFTDYYMNWVMQSHGKSLEWIGVINPYNGGTTYNQRFTGKATLTVDKSSSTAYMELNSLTSEDSAVYYCARNYGAMDSWGQGTSVTVSS
VL: DIQMTQSPASLSASVGETVTITCRASGNIHNYLAWYQQKQGKSPQLLVSNAKTLADGVPSRFGGSGSGTQYSLKINSLQPEDFGSYYCQHFWITPPTFGAGTRLEIKR
B20: CD8B245 (antibody, human IgG1, kappa, V domains shown)
VH: EFQLQQSGGGLVQPGGSLSLSCAAPGFTFTDYYMSWVRQSPGKALEWLALSRNKGNGYTTEYSASVKGRFTISRDNSQSILYLQMNVLRAEDSATYYCARTVTGTLFYYALDYWGQGTTVTVSS
VL: DIQMTQSPASLSASVGETVTITCRASENIYSYLAWYQQKQGKSPQFLVYNAKTLAAGVPSRFSGSGSGTQFSLKINRLQPEDFGTYYCQHHYGTPLTFGDGTRLEIKR

Each binder was assayed against Human CD8αα fused to human Fc (human) (assay: SPR, Biacore 8K, mAb captured, single cycle kinetics).

**Q.** With B1 as the binder, how does the binding read?
**A.** The binding was “no binding (tested: 100 nM (highest concentration tested))”.

**Q.** For B2, which binding is on record?
**A.** Its binding is “no binding (tested: 100 nM (highest concentration tested))”.

**Q.** Which binding does the source give for B3 here?
**A.** The binding was “no binding (tested: 100 nM (highest concentration tested))”.

**Q.** B4 was tested. Which binding did it give?
**A.** The binding was “no binding (tested: 100 nM (highest concentration tested))”.

**Q.** Which binding does the source give for B5 here?
**A.** Its binding is “no binding (tested: 100 nM (highest concentration tested))”.

**Q.** How did the binding turn out when B6 was run?
**A.** Its binding is “no binding (tested: 100 nM (highest concentration tested))”.

**Q.** How did the binding turn out when B7 was run?
**A.** Its binding is “no binding (tested: 100 nM (highest concentration tested))”.

**Q.** Which binding does the source give for B8 here?
**A.** Its binding is “no binding (tested: 100 nM (highest concentration tested))”.

The binders below were run against Human CD8αα fused to human Fc (human) (assay: SPR (Biacore 8K), mAb captured, single cycle kinetics).

**Q.** With B9 as the binder, how does the binding read?
**A.** The binding was “no binding (tested: 100 nM (highest concentration tested))”.

**Q.** How did the binding turn out when B10 was run?
**A.** Its binding is “no binding (tested: 100 nM (highest concentration tested))”.

**Q.** Which binding does the source give for B11 here?
**A.** Its binding is “no binding (tested: 100 nM (highest concentration tested))”.

**Q.** B12 was tested. Which binding did it give?
**A.** The binding was “no binding (tested: 100 nM (highest concentration tested))”.

These binders were tested against Human CD8αα fused to human Fc (human) (assay: SPR (Biacore 8k), mAb captured, single cycle kinetics).

**Q.** For B13, which binding is on record?
**A.** The binding was “no binding (tested: 11.1, 33.3 and 100 nM tested)”.

**Q.** Which binding does the source give for B14 here?
**A.** Its binding is “no binding (tested: 11.1, 33.3 and 100 nM tested)”.

**Q.** For B15, which binding is on record?
**A.** The binding was “no binding (tested: 11.1, 33.3 and 100 nM tested)”.

**Q.** With B16 as the binder, how does the binding read?
**A.** The binding was “no binding (tested: 11.1, 33.3 and 100 nM tested)”.

**Q.** For B17, which binding is on record?
**A.** Its binding is “no binding (tested: 11.1, 33.3 and 100 nM tested)”.

**Q.** For B18, which binding is on record?
**A.** Its binding is “no binding (tested: 11.1, 33.3 and 100 nM tested)”.

**Q.** Which binding does the source give for B19 here?
**A.** The binding was “no binding (tested: 11.1, 33.3 and 100 nM tested)”.

**Q.** For B20, which binding is on record?
**A.** The binding was “no binding (tested: 11.1, 33.3 and 100 nM tested)”.
